Among the data in PubChem BioAssay AID330 (DTP/NCI, 2004) are survivor count and T/C values, retold here.

The list is a part of this screen's results and no random one: it gathers tests that were run many times, whatever their T/C, doses with no T/C, and many T/C values between a quarter and a half above the control. Further doses and runs are listed elsewhere. T/C gives the treated animals as a percentage of the vehicle group. Some entries give survivors of the animals treated and no T/C: the source holds a T/C of zero for them, seemingly a mark for toxic or unscored doses. Some survivor counts are full or nearly so, which does not show that the dose was tolerated: the source hardly ever lists a survival T/C far under the control, and the zero likely stands for such cases as well. Counts of survivors are from the toxicity check (mostly the fifth day) where no day follows; animals may have died later. Schedule codes are those of the source, taken here to give the interval after Q, in days (D) or hours (H), and the number of doses after X. For survival time, this PubChem deposit counts one and a half times the control or more as active, and values a quarter to a half above the control carry no call in these data; other NCI protocols may use other cut-offs.

The subject of the assay is P388 leukemia ip, CD2F1 mice, survival T/C. The assay can be described thus: NCI In Vivo Anticancer Drug Screen. Data for tumor model P388 Leukemia (intraperitoneal) in CD2F1 (CDF1) mice. Conditions: T/C endpoint: median survival time, higher T/C = longer survival.
Where [1] appears, read: dose: 200.0 mg/kg/injection, schedule: Q01DX005 (ip), vehicle: saline with Tween-80.

On to `Fc1ccc2nc3ccccc3c(SCCNCCSc3c4ccccc4nc4ccc(F)cc34)c2c1`, for which the survivor count (dose: 240.0 mg/kg/injection, schedule: Q01DX005 (ip), vehicle: saline with Tween-80) is 6 of 6.
With `CN(/C(=N/C(=S)NCc1ccccc1)SCc1ccccc1)c1ccccc1`, the survivor count under setting [1] was 6 of 6.
Regarding `O=[C-]C(F)(F)F.[C-]#[O+].[C-]#[O+].[C-]#[O+].[C-]#[O+].[C-]#[O+].[Mn]`, the survivor count (dose: 200.0 mg/kg/injection, schedule: Q01DX001 (ip), vehicle: other) is listed as 1 of 6.
On to `COC1NC(=O)NC(=O)C1=[N+]=[N-]` (configuration not stated), for which the T/C was 131 % of control (dose: 0.62 mg/kg/injection, schedule: Q01DX009 (ip), vehicle: saline); 140 % of control (dose: 1.25 mg/kg/injection, schedule: Q01DX009 (ip), vehicle: saline); 140 % of control (dose: 2.5 mg/kg/injection, schedule: Q01DX009 (ip), vehicle: saline sonified); 141 % of control (dose: 3.3 mg/kg/injection, schedule: Q01DX009 (ip), vehicle: saline with Tween-80); 131 % of control (dose: 300.0 micrograms/kg/injection, schedule: Q01DX009 (ip), vehicle: saline).
Turning to `CCOC(=O)c1cc(-c2ccccc2)c(=O)c(OC)nc1-c1ccccc1`, the survivor count reads like this: (dose: 100.0 mg/kg/injection, schedule: Q01DX005 (ip), vehicle: saline with Tween-80) 5 of 5; under setting [1], 0 of 5.
For `C/C(C#N)=C/c1ccccc1`, the survivor count (dose: 200.0 mg/kg/injection, schedule: Q01DX009 (ip), vehicle: saline with Tween-80) is 3 of 6.
Consider `CN=C1N=C(c2ccc(C(C)(C)C)cc2)C(O)(c2ccc(C(C)(C)C)cc2)N1` (configuration not stated), for which, under “dose: 100.0 mg/kg/injection, schedule: Q04DX002 (ip), vehicle: saline with Tween-80”, the survivor count is 2 of 6.
